From paper PMC6715661, “Cardiac MLC2 kinase is localized to the Z-disc and interacts with α-actinin2” (Scientific Reports, 2019) come the findings set out here.

Protein sequences, listed by entry. Tags and fused reporters are not part of them.
UniProt Q9JI91: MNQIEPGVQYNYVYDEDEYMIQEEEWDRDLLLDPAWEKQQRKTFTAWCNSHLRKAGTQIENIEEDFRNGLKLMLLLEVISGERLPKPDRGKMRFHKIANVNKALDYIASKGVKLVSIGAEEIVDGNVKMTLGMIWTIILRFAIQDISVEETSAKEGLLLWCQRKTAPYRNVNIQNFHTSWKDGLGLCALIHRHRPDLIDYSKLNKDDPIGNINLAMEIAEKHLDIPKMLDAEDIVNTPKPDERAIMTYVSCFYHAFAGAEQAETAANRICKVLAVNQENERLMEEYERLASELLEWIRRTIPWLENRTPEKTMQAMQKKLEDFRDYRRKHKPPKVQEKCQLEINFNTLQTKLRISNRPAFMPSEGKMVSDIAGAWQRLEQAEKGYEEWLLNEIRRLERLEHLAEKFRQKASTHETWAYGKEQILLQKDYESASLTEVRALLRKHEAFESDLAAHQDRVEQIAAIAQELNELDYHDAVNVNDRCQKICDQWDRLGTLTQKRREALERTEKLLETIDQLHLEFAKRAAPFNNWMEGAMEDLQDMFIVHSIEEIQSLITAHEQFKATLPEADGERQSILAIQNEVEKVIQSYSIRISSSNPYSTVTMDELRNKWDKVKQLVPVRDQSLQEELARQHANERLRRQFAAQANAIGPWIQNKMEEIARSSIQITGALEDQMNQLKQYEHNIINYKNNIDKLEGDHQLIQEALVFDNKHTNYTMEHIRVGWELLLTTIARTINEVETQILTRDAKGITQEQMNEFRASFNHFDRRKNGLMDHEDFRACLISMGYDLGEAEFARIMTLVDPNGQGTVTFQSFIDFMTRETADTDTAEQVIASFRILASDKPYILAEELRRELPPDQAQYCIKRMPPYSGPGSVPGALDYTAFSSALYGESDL

Assay [1] deals with T1, HA-tagged cMLCK(171–795) (mouse) (UniProt Q3UIZ8).
T1 sequence: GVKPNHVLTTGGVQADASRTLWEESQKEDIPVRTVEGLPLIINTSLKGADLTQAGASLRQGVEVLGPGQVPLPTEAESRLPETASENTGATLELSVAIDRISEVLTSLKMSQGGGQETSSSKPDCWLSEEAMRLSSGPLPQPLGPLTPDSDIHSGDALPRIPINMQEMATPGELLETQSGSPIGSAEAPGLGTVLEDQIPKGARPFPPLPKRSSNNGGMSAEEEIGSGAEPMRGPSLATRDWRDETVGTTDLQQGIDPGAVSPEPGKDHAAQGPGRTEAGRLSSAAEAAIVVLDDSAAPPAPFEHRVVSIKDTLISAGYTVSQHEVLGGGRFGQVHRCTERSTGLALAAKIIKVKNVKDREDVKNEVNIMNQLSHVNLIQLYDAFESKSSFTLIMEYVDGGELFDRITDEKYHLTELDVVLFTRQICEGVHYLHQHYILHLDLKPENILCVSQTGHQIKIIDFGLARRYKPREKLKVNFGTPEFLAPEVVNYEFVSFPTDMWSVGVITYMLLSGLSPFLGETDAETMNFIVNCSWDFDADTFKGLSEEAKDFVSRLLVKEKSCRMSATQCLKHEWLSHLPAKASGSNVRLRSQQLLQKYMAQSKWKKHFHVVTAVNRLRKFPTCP
The assay is described as follows: co-IP; HA-tagged cMLCK forms and Myc-tagged α-actinin2 forms mixed in vitro; how the complex was isolated and detected is not told for this experiment.

In assay [2] the target is T2, HA-tagged cMLCK (cardiac-specific myosin light chain kinase) expressed in transgenic mouse hearts (mouse) (UniProt Q3UIZ8).
T2 sequence: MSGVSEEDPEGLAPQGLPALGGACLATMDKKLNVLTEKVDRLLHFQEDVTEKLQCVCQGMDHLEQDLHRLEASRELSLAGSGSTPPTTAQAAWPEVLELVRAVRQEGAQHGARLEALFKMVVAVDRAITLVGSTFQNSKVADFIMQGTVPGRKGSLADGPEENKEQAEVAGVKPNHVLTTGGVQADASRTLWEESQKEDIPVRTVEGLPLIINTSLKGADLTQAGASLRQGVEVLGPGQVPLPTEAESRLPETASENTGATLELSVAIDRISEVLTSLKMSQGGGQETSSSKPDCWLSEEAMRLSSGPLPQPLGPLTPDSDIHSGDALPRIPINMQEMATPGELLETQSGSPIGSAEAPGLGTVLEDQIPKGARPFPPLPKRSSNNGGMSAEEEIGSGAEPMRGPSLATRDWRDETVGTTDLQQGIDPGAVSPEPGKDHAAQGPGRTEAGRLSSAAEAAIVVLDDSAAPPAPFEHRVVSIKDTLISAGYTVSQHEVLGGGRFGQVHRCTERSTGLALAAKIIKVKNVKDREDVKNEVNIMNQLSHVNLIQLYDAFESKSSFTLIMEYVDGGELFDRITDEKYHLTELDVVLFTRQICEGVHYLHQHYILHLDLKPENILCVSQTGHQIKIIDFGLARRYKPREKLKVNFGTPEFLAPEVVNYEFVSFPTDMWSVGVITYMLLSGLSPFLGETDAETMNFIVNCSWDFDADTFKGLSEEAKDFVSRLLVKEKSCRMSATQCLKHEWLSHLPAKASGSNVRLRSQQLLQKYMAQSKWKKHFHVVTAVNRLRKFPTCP
The assay is described as follows: co-IP; mouse heart lysates; lysis buffer 25 mM HEPES, 100 mM NaCl, 5 mM MgCl2, 1 mM DTT, 1% triton, 10% glycerol, pH 7.6; precipitated with HA-agarose, Western blotting. Background: A western blot detects proteins with antibodies after separation by electrophoresis.

No constants are given. Whether binding was seen depends on the method and setting. Binding seen in cells or lysates may run through a third protein. Some binding calls cover weakened binding; strength is not graded here. Sequences can lack the tags named with a protein.

“Myc-α-actinin2, full length, expressed in HEK293 cells (from UniProt Q9JI91 1-894)”: in assay [1], the binding entry is recorded as “binds”.

Regarding “α-actinin2, endogenous in mouse heart (from UniProt Q9JI91 1-894)”, the binding entry in assay [2] is “binds”.
